PubChem BioAssay AID686938 – Drosophila RNAi Screening Center | 2013
The deposit covers about 23,000 reagents; this is an unselected part of those with a known target gene and a result. Of all reagents, 75 (0.33%) got an active call. 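Raw plate signals without normalisation; calls rest on plate z-scores that were not deposited; ratio present for only 364 wells.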 A plus sign joins genes that one reagent is predicted to hit. Not given: the dose of the treatment.

Assay: 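Fly genes required for calcium entry once internal stores are emptied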 (primary screen)
Cell system: Drosophila S2R+ cells
Reagent: long dsRNA against Drosophila genes, about 0.25 µg dsRNA per well, roughly 10,000 cells
Timing: 5 days of knock-down before the calcium assay
Treatment: thapsigargin (SERCA pump blocker) to empty calcium stores; entry signal taken 4 min after adding it
Read-out: 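Per-well fluo-4 fluorescence in two replicates, unnormalised, measured in resting cells and 4 min after store depletion by the SERCA blocker thapsigargin; ratio of the two present in few wells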
Scale: calcium entry signal: higher = stronger calcium signal after store depletion; resting calcium signal: higher = higher resting calcium signal
Rule for the call: 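Hit if the duplicate-averaged plate z-score for entry over resting signal is under −3; wells with weak total dye signal (Fmax z < −2) or more than 5 off-targets removed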
Meaning of the calls: active = strongly reduced calcium entry; inactive = no strong reduction

The first 6 records as a preview:
| predicted target | dsRNA | calcium entry signal, replicate 1 (fluorescence units) | calcium entry signal, replicate 2 (fluorescence units) | resting calcium signal, replicate 1 (fluorescence units) | resting calcium signal, replicate 2 (fluorescence units) | activity call |
| --- | --- | --- | --- | --- | --- | --- |
| CG12848 | DRSC04128 | 5.26e7 | 4.92e7 | 2.31e7 | 2.15e7 | inactive |
| Cdc7 | DRSC18428 | 4.01e7 | 2.78e7 | 1.79e7 | 1.36e7 | inactive |
| Cdc7 | DRSC18429 | 2.59e7 | 3.64e7 | 1.20e7 | 1.58e7 | inactive |
| Cdc7 | DRSC22133 | 1.86e7 | 2.20e7 | 1.02e7 | 1.18e7 | inactive |
| scpr-B | DRSC15200 | 2.92e7 | 2.94e7 | 1.26e7 | 1.46e7 | inactive |
| BTBD9 | DRSC18148 | 3.35e7 | 4.41e7 | 1.57e7 | 2.10e7 | inactive |

Main list, repeating the preview:
| predicted target | dsRNA | calcium entry signal, replicate 1 (fluorescence units) | calcium entry signal, replicate 2 (fluorescence units) | resting calcium signal, replicate 1 (fluorescence units) | resting calcium signal, replicate 2 (fluorescence units) | activity call |
| --- | --- | --- | --- | --- | --- | --- |
| CG12848 | DRSC04128 | 5.26e7 | 4.92e7 | 2.31e7 | 2.15e7 | inactive |
| Cdc7 | DRSC18428 | 4.01e7 | 2.78e7 | 1.79e7 | 1.36e7 | inactive |
| Cdc7 | DRSC18429 | 2.59e7 | 3.64e7 | 1.20e7 | 1.58e7 | inactive |
| Cdc7 | DRSC22133 | 1.86e7 | 2.20e7 | 1.02e7 | 1.18e7 | inactive |
| scpr-B | DRSC15200 | 2.92e7 | 2.94e7 | 1.26e7 | 1.46e7 | inactive |
| BTBD9 | DRSC18148 | 3.35e7 | 4.41e7 | 1.57e7 | 2.10e7 | inactive |
| BTBD9 | DRSC22371 | 3.98e7 | 5.70e7 | 1.70e7 | 2.48e7 | inactive |
| Vps39 | DRSC16205 | 4.23e7 | 4.10e7 | 1.94e7 | 1.69e7 | inactive |
| Msh6 | DRSC10759 | 3.35e7 | 5.00e7 | 1.82e7 | 2.12e7 | inactive |
| CG11790 | DRSC14390 | 4.66e7 | 4.66e7 | 1.93e7 | 1.77e7 | inactive |
| CG14450 | DRSC11707 | 2.18e7 | 3.00e7 | 1.16e7 | 1.42e7 | inactive |
| sut1 | DRSC07700 | 4.67e7 | 3.22e7 | 1.93e7 | 1.54e7 | inactive |
| CG32694 | DRSC17844 | 3.17e7 | 3.94e7 | 1.66e7 | 1.81e7 | inactive |
| CG32694 | DRSC17855 | 4.44e7 | 5.36e7 | 2.09e7 | 2.32e7 | inactive |
| CG32694 | DRSC22670 | 3.42e7 | 2.71e7 | 1.70e7 | 1.10e7 | inactive |
| CG8191 + CG12379 | DRSC19451 | 3.23e7 | 2.98e7 | 1.57e7 | 1.28e7 | inactive |
| CG7702 | DRSC16293 | 3.43e7 | 2.34e7 | 1.51e7 | 1.02e7 | inactive |
| OdsH | DRSC20263 | 3.74e7 | 2.95e7 | 1.81e7 | 1.25e7 | inactive |
| Eig71Eb | DRSC11149 | 4.39e7 | 4.34e7 | 1.86e7 | 1.95e7 | inactive |
| CG13231 | DRSC06351 | 1.95e7 | 3.89e7 | 1.04e7 | 1.52e7 | inactive |
| CG11458 | DRSC11666 | 3.49e7 | 4.93e7 | 1.69e7 | 2.16e7 | inactive |
| CG12768 | DRSC11680 | 2.71e7 | 4.46e7 | 1.32e7 | 1.94e7 | inactive |
| CG12768 | DRSC23215 | 3.86e7 | 4.03e7 | 1.91e7 | 1.85e7 | inactive |
| fd96Cb | DRSC16947 | 2.32e7 | 6.03e7 | 2.32e7 | 2.63e7 | inactive |
| CG15535 | DRSC15071 | 3.27e7 | 4.08e7 | 1.61e7 | 1.86e7 | inactive |
| Lst | DRSC07146 | 5.31e7 | 6.28e7 | 2.19e7 | 2.99e7 | inactive |
| CG32284 | DRSC08025 | 4.08e7 | 3.58e7 | 1.66e7 | 1.50e7 | inactive |
| CG11811 | DRSC09862 | 2.27e7 | 3.28e7 | 1.24e7 | 1.50e7 | inactive |
| CG13002 | DRSC19521 | 3.21e7 | 3.33e7 | 1.71e7 | 1.34e7 | inactive |
| DhpD | DRSC12288 | 3.46e7 | 3.77e7 | 1.62e7 | 2.72e7 | inactive |
| Mi-2 + Su(Tpl) | DRSC09640 | 3.27e7 | 3.39e7 | 1.74e7 | 1.57e7 | inactive |
| ND6 (retired record) | DRSC21271 | 2.69e7 | 4.53e7 | 1.44e7 | 2.56e7 | inactive |
| CG15882 | DRSC19735 | 5.50e7 | 4.54e7 | 2.43e7 | 1.92e7 | inactive |
| Nap1 | DRSC04626 | 3.13e7 | – | 1.53e7 | – | inactive |
| Spec2 (retired record) | DRSC12258 | 4.59e7 | 2.93e7 | 2.21e7 | 1.37e7 | inactive |
| Spec2 (retired record) | DRSC22886 | 5.70e7 | 3.68e7 | 3.26e7 | 1.83e7 | inactive |
| CG14096 | DRSC10099 | 3.10e7 | 2.70e7 | 1.55e7 | 1.33e7 | inactive |
| Chc | DRSC20229 | 3.90e7 | 4.27e7 | 1.88e7 | 1.96e7 | inactive |
| CG34126 | DRSC02726 | 3.35e7 | 2.68e7 | 1.72e7 | 1.45e7 | inactive |
| CG34126 | DRSC22079 | 4.49e7 | 7.49e7 | 2.28e7 | 3.68e7 | inactive |
| SmydA-4 | DRSC19390 | 3.98e7 | 4.50e7 | 1.84e7 | 2.43e7 | inactive |
| SmydA-4 | DRSC21866 | 1.81e7 | 3.16e7 | 1.02e7 | 1.66e7 | inactive |
| wntD | DRSC16423 | 3.22e7 | 5.67e7 | 1.64e7 | 8.26e7 | inactive |
| dpp | DRSC00118 | 2.63e7 | 3.42e7 | 1.47e7 | 1.50e7 | inactive |
| dpp | DRSC00121 | 3.19e7 | 3.63e7 | 1.64e7 | 1.61e7 | inactive |
| dpp | DRSC00813 | 3.93e7 | 4.41e7 | 1.77e7 | 2.00e7 | inactive |
| bw | DRSC04005 | 1.86e7 | 3.30e7 | 1.05e7 | 1.35e7 | inactive |
| bw | DRSC04677 | 4.26e7 | – | 2.24e7 | – | inactive |
| CG14957 | DRSC08416 | 3.04e7 | 2.77e7 | 2.06e7 | 1.41e7 | inactive |
| CG3097 | DRSC18275 | 3.53e7 | 3.57e7 | 1.63e7 | 1.41e7 | inactive |
| CG17019 | DRSC06642 | 2.43e7 | 4.76e7 | 2.06e7 | 2.10e7 | inactive |
| Cyp4p1 | DRSC07372 | 4.71e7 | 4.00e7 | 1.95e7 | 1.70e7 | inactive |
| Jupiter | DRSC15204 | 2.75e7 | 3.64e7 | 1.23e7 | 1.66e7 | inactive |
| Jupiter | DRSC15205 | 3.96e7 | 3.83e7 | 2.08e7 | 1.84e7 | inactive |
| Jupiter | DRSC15389 | 4.36e7 | 3.97e7 | 2.10e7 | 2.01e7 | inactive |
| CG9444 | DRSC16493 | 3.44e7 | 3.51e7 | 1.80e7 | 1.78e7 | inactive |
| CG15286 | DRSC01907 | 4.54e7 | 3.54e7 | 2.11e7 | 1.82e7 | inactive |
| Deaf1 | DRSC11143 | 3.11e7 | 5.44e7 | 1.45e7 | 2.54e7 | inactive |
| Deaf1 | DRSC22786 | 5.14e7 | 3.08e7 | 2.29e7 | 1.32e7 | inactive |
| GstE13 | DRSC06083 | 5.38e7 | 4.36e7 | 2.30e7 | 1.86e7 | inactive |
| resilin | DRSC05627 | 2.34e7 | 5.24e7 | 1.20e7 | 2.31e7 | inactive |
| resilin | DRSC06595 | 4.62e7 | 5.05e7 | 1.90e7 | 2.30e7 | inactive |
| CG43066 | DRSC06927 | 4.74e7 | 4.44e7 | 2.01e7 | 2.27e7 | inactive |
| Cdc6 | DRSC10563 | 4.36e7 | 2.88e7 | 2.83e7 | 1.38e7 | inactive |
| asRNA:CR31144 + RpL3 | DRSC16834 | 1.09e7 | 1.34e7 | 8.55e6 | 9.70e6 | inactive |
| CG34273 | DRSC13041 | 2.63e7 | 4.15e7 | 1.17e7 | 1.86e7 | inactive |
| CR31427 | DRSC22675 | 4.95e7 | 3.44e7 | 2.39e7 | 1.43e7 | inactive |
| Octbeta3R | DRSC15351 | 4.24e7 | 3.69e7 | 2.22e7 | 1.95e7 | inactive |
| Octbeta3R | DRSC16191 | 4.31e7 | 4.21e7 | 2.25e7 | 2.24e7 | inactive |
| Octbeta3R | DRSC21853 | 2.38e7 | 4.77e7 | 1.24e7 | 2.13e7 | inactive |
| Octbeta3R | DRSC21902 | 3.50e7 | 5.72e7 | 1.65e7 | 2.83e7 | inactive |
| Octbeta3R | DRSC22350 | 3.35e7 | 4.18e7 | 1.50e7 | 2.17e7 | inactive |
| CG4783 | DRSC15644 | 4.05e7 | 2.58e7 | 1.95e7 | 1.39e7 | inactive |
| CG3436 | DRSC00605 | 1.07e7 | – | 7.82e6 | – | inactive |
| CG31058 (retired record) | DRSC15840 | 2.09e7 | 3.85e7 | 1.23e7 | 1.99e7 | inactive |
| CG31058 (retired record) | DRSC22987 | 4.12e7 | 3.67e7 | 2.30e7 | 1.62e7 | inactive |
